A short description of the experiment: qHTS Assay for Lipid Storage Modulators in Drosophila S3 Cells.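 On cell number change: cells counted by Cell Tracker Red CMTPX staining in the red channel.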 To be noted: BODIPY lipid droplet fluorescence, 18-24 h; for cell number change: measured here: cell count max response, cells fed with added oleic acid. In a few lines: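 Laser-scanning cytometry quantifies lipid droplet accumulation (500–530 nm total intensity; droplet/cell object ratio) in oleic acid-fed (400 uM added) Drosophila S3 cells treated with a concentration series. 20 uM Triacsin C defined 100% inhibition.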

Where [1] appears, read: measured here: cell number channel AC50, cells fed with added oleic acid.
[2] abbreviates: measured here: lipid fluorescence (Fed channel) AC50, cells fed with added oleic acid.

Some of the results follow. Shown are side measurements of this screen, not its main read-out; they come without a call. The list favours compounds with an active or inconclusive main result. Words in brackets tell the shape of the fitted curve; partial curves, single points and poor fits give uncertain potencies.

Usually AC50 stands for the concentration giving half of the maximal activity seen.

Turning to `CCn1cc(C(=O)OCC(=O)c2cc(C)n(-c3cccc(C(F)(F)F)c3)c2C)c(=O)c2ccc(C)nc21`, the AC50 under setting [1] is 1.16 µM [rising, full curve, poor fit]. As to `CCCOC(=S)N/C(=N\S(=O)(=O)c1ccccc1)c1ccccc1`, the cell number change was -19.8%. Further, under setting [1], the AC50 is 0.651 µM [falling, full curve, poor fit]. Moreover, the AC50 under setting [2] is 0.731 µM [falling, full curve]. Regarding `Cc1cc(C)c(NS(=O)(=O)c2ccc(NC(=O)c3cccs3)cc2)c(C)c1`, the cell number change stood at 83.5%. Moreover, under setting [1], the concentration at half-maximal activity (AC50) was 29.1 µM [rising, single point]. Moreover, the AC50 under setting [2] is 29.1 µM [rising, single point].

Take `O=c1c2c(nc3n1CCCCC3)sc1c(O)cccc12`: the cell number change was -9.71%. Besides, the AC50 under setting [2] is 29.1 µM [falling, partial curve, poor fit]. Consider `CCOC(=O)[C@H]1[C@H]2COc3ccc(Br)cc3[C@@H]2N2C(=O)CN(Cc3ccc(C)cc3)C(=O)[C@@]12C`, for which the cell number change came to 11.7%. Besides, the concentration at half-maximal activity (AC50) under setting [2] is 0.411 µM [rising, full curve]. On to `COc1cccc(N2CCN(S(=O)(=O)c3ccc(-c4cnc(C5CC5)o4)cc3)CC2)c1`, for which the cell number change is -8.37%. In the case of `COc1cccc(NC(=O)C2CCN(C(=O)[C@@H]3Cc4ccccc4CN3)CC2)c1`, the cell number change is 10.1%. For `COc1ccc(-c2cnc(SCC(=O)Nc3ccc4c(c3)OCO4)n2Cc2ccco2)cc1`, the cell number change is -12%. In the case of `Cc1csc(Sc2ccc(S(=O)(=O)N3CCCC3)cn2)n1`, the AC50 under setting [2] was 6.51 µM [rising, partial curve, poor fit]. As for `CSCCC(NC(=O)c1ccccc1Br)C(=O)N1CCCC(C(F)(F)F)C1` (configuration not stated), the cell number change is 13.2%. The AC50 under setting [2] is 18.4 µM [rising, single point]. For `CCCCn1nc(C(=O)N(CCOC)c2c(N)n(CCCC)c(=O)[nH]c2=O)c2ccccc2c1=O`, the cell number change is -20.8%. Further, under setting [2], the AC50 is 4.11 µM [falling, full curve]. With `CCc1ccc(-n2c(C)nc3cc(C(=O)NCc4cccnc4)ccc32)cc1`, the cell number change was 21.7%. Moreover, under setting [1], the AC50 is 1.64 µM [rising, partial curve, poor fit]. In addition, under setting [2], the half-maximal activity concentration (AC50) was 2.06 µM [rising, full curve]. In the case of `CN(C)CCNC(=O)c1c(CSc2ccccc2)noc1C(=O)NCc1ccccc1`, the cell number change stood at 15.3%. The concentration at half-maximal activity (AC50) under setting [2] was 14.6 µM [rising, partial curve, poor fit]. With `Cn1c(COc2ccc(Cl)cc2)nnc1SCC(=O)NC1CCCC1`, the concentration at half-maximal activity (AC50) under setting [2] is 0.082 µM [falling, full curve, poor fit]. As for `CCc1c(O)nc2sc3ccccc3n2c1=O`, the cell number change was 66.1%. The AC50 under setting [1] is 18.4 µM [rising, single point]. Consider `CCn1ncc(CN2CCN(Cc3ccc(OC)c(C)c3C)C(CCO)C2)c1C` (configuration not stated), for which the cell number change turned out to be 10.7%. For the same compound, under setting [2], the AC50 is 0.058 µM [rising, full curve, poor fit]. `CC(=O)N1CCN(C(=O)c2cc3c(s2)CCC(C)C3)CC1` (configuration not stated): the cell number change is 33%. Turning to `CC(C)(CO)NC(=O)C12CC3CC(CC(Br)(C3)C1)C2`, the cell number change was -28.5%. Under setting [2], the half-maximal activity concentration (AC50) is 0.291 µM [falling, partial curve, poor fit].

With `COc1ccc(Cl)cc1NC(=O)c1cccnc1`, the cell number change was -15.2%. Further, under setting [2], the AC50 is 0.517 µM [rising, full curve, poor fit]. With `CCCCN(C)C(=O)Cc1c(OC)ccc2cc(Br)ccc12`, the cell number change was determined as 4.06%. Moreover, under setting [2], the AC50 was 3.66 µM [rising, full curve]. Regarding `COc1ccccc1C1C=C(c2ccc(C)cc2)Nc2nnnn21` (configuration not stated), the cell number change is -7.26%. In addition, the half-maximal activity concentration (AC50) under setting [2] is 6.51 µM [rising, single point]. On to `CCC1CCCCN1C(=O)CSc1nc(C)cc(C)n1` (configuration not stated), for which the cell number change was found to be 40.8%. Also, the half-maximal activity concentration (AC50) under setting [1] was 2.31 µM [rising, full curve]. Moreover, the AC50 under setting [2] is 2.59 µM [rising, single point].

For `Cc1noc(C)c1C(=O)NCCc1ccccc1`, the cell number change amounted to 43.7%. Also, under setting [1], the half-maximal activity concentration (AC50) was 16.4 µM [rising, single point]. Regarding `COc1cccc(CNC(=O)C2CCCN(C(=O)c3ccc(Cl)cc3)C2)c1` (configuration not stated), the cell number change is -1.55%. Besides, the AC50 under setting [2] was 18.4 µM [rising, single point]. In the case of `COCCCn1c(-c2ccc(OC)cc2)nc2c1c(=O)[nH]c(=O)n2Cc1ccccc1`, the cell number change amounted to 13.5%. Further, the AC50 under setting [2] was 6.51 µM [rising, partial curve, poor fit]. On to `O=C(c1ccccc1F)n1c2c(c3ccccc31)CCCC2`, for which, under setting [1], the AC50 was 6.51 µM [rising, single point]. As to `C=CCc1c(C)nc(SC)nc1Nc1ccc(C(C)=O)cc1`, the AC50 under setting [2] is 29.1 µM [falling, single point]. Turning to `Cc1cccc(Nc2c([N+](=O)[O-])c(=O)n(C)c3ccccc23)c1`, the cell number change is -6.85%. The AC50 under setting [2] is 2.31 µM [rising, single point]. Regarding `Cc1cccc(C(=O)NC(=S)NCc2cccnc2)c1`, the cell number change was 8.39%. The AC50 under setting [2] was 0.58 µM [rising, single point]. With `CCOc1ccccc1C(=O)N[C@H](C(=O)NCc1ccccc1)C(C)C`, the cell number change stood at 7.44%.

Consider `CC(C)C(NC(=O)CSc1ccc(Cl)cc1)C(C)C`, for which the cell number change was -11.6%. For the same compound, under setting [2], the AC50 was 0.13 µM [falling, full curve].

Take `Cc1cc(C(=O)COc2cccnc2[N+](=O)[O-])c(C)n1Cc1cccs1`: the cell number change was 35.2%. Also, under setting [1], the AC50 was 0.206 µM [rising, full curve]. For the same compound, the AC50 under setting [2] was 4.61 µM [rising, full curve]. As to `C/C(=N/NC(=O)CNC(=O)C1COc2ccccc2O1)c1ccc2c(c1)OCCO2` (configuration not stated), the AC50 under setting [2] was 5.8 µM [rising, single point]. Regarding `CC1CCN(Cc2c(C(=O)N/N=C/c3cc(Br)ccc3O)nnn2-c2nonc2N)CC1`, the cell number change stood at 9.46%. For the same compound, the AC50 under setting [2] was 29.1 µM [rising, single point].

With `COc1ccc(N(C(C)C(=O)N2CCCC2)S(C)(=O)=O)cc1` (configuration not stated), the cell number change is -9.49%.

Turning to `Cc1ccc(Cc2nnc(SCC(=O)Nc3ccccc3)n(N)c2=O)cc1`, the cell number change was 0.107%. Moreover, the concentration at half-maximal activity (AC50) under setting [2] was 11.6 µM [falling, partial curve]. Consider `CCCCNC(=O)CN(CCc1ccccc1)S(C)(=O)=O`, for which the cell number change is -46.5%. Under setting [1], the AC50 was 5.17 µM [falling, full curve]. For the same compound, under setting [2], the AC50 is 3.66 µM [falling, full curve]. Take `Cc1ccc(F)cc1NC(=O)Nc1cc(C(C)(C)C)nn1C`: the cell number change was determined as 3.96%. For the same compound, the AC50 under setting [1] was 6.51 µM [falling, single point]. The half-maximal activity concentration (AC50) under setting [2] was 6.51 µM [falling, single point]. For the compound `N#Cc1ccc(N/N=C/c2cn(-c3ccccc3)nc2-c2ccccc2)c([N+](=O)[O-])c1`, the cell number change stood at 3.52%. Moreover, the AC50 under setting [2] was 0.13 µM [rising, full curve, poor fit]. With `COc1ccc(NC(=O)CSc2ccc(NC(C)=O)cc2)cc1S(=O)(=O)N1CCCCC1`, the cell number change was -12.2%. Moreover, the AC50 under setting [1] was 4.61 µM [rising, single point]. Consider `CN(C)S(=O)(=O)c1ccc(N)c([N+](=O)[O-])c1`, for which the cell number change is -43.9%. Under setting [1], the AC50 is 29.1 µM [falling, single point]. On to `Cc1ccccc1NC(=O)CCS(=O)(=O)c1cccc2nonc12`, for which the cell number change was 9.52%.

Regarding `COc1ccc2nc(-c3ccccc3)cc(OC)c2c1`, the AC50 under setting [1] was 0.00461 µM [rising, full curve, poor fit] and the AC50 under setting [2] was 8.2 µM [rising, partial curve]. Consider `Cc1cc(OCC(=O)N2CCC(C(N)=O)CC2)c2c(C)cc(=O)oc2c1`, for which the cell number change came to 13.9%. With `CCOC(=O)c1ccccc1NC(=O)C1CC(=O)N(c2ccccc2)C1` (configuration not stated), the cell number change worked out at 32.1%. Further, the AC50 under setting [1] was 29.1 µM [rising, single point]. The AC50 under setting [2] is 29.1 µM [rising, single point]. Take `CCC(Oc1cccc(C)c1)C(=O)Nc1ccccc1C(=O)N1CCOCC1` (configuration not stated): the cell number change is -41.5%. Also, the concentration at half-maximal activity (AC50) under setting [1] is 16.4 µM [falling, single point]. Besides, the AC50 under setting [2] is 20.6 µM [falling, partial curve]. In the case of `Cc1ccc(C)c(Cn2nnc3c(=O)[nH]c(C4CCN(C(=O)c5cccs5)CC4)nc32)c1`, the cell number change amounted to 74.8%. Further, the AC50 under setting [1] was 5.8 µM [rising, partial curve]. On to `O=C(/C=C/c1ccc(Cl)cc1)c1ccc([N+](=O)[O-])o1`, for which the cell number change was -66.2%. Also, under setting [1], the AC50 was 18.4 µM [falling, partial curve]. Under setting [2], the AC50 is 4.11 µM [falling, full curve].

As to `O=C(Nc1ccc(S(=O)(=O)Nc2nccs2)cc1)C1CCCCC1`, the cell number change worked out at 17.7%. On the same count and under the same terms, the figure for `O=C(NC(O)C(=O)c1ccccc1)c1ccc(F)cc1` (configuration not stated) is 23%. With `Cc1c(/C=C/C(=O)c2ccccc2)cnn1C`, the cell number change is -4.4%. The AC50 under setting [2] was 2.91 µM [falling, single point]. In the case of `C=CCn1c(COc2ccc(OC)cc2)nc2ccccc21`, the cell number change is -6.82%. In addition, under setting [2], the AC50 is 29.1 µM [rising, single point]. For `Cc1nc([N+](=O)[O-])c(Br)n1CC(=O)c1ccc(Br)cc1`, the cell number change amounted to 62.6%. The AC50 under setting [1] is 13 µM [rising, partial curve]. Further, the AC50 under setting [2] is 9.2 µM [rising, partial curve]. Consider `COc1ccccc1N1C(=O)C2C3CC(c4ccccc4)C(C3)C2C1=O` (configuration not stated), for which the AC50 under setting [1] is 2.06 µM [rising, partial curve, poor fit]. Turning to `O=S1(=O)C=CC(c2ccccc2)C1` (configuration not stated), the cell number change was 14.4%. In addition, the AC50 under setting [2] was 0.411 µM [falling, single point]. On to `CCCN1C(=O)/C(=C2\SC(=S)N(c3c(C)n(C)n(-c4ccccc4)c3=O)C2=O)c2ccccc21`, for which the concentration at half-maximal activity (AC50) under setting [2] was 0.13 µM [falling, full curve, poor fit].

For the compound `Cn1c(CNC(=O)c2ccco2)nnc1SCC(=O)Nc1cccc(Br)c1`, the AC50 under setting [2] is 18.4 µM [falling, partial curve]. Regarding `CCOC(=O)C1=C(CSc2nc(CC)c(C)cc2C#N)OC(N)=C(C#N)C1c1ccccc1` (configuration not stated), the AC50 is 6.51 µM [rising, single point] under setting [1] and 29.1 µM [falling, single point] under setting [2]. Take `CC(=O)c1c(-c2ccc(Cl)cc2)c2ccccc2[nH]c1=O`: the cell number change is -1.04%. Under setting [2], the AC50 was 20.6 µM [falling, partial curve]. Consider `CC(C)(C)NCC(O)COc1ccc(Br)cc1` (configuration not stated), for which the cell number change was -46.5%. The AC50 under setting [2] is 1.84 µM [falling, partial curve, poor fit].

These data come from PubChem BioAssay AID2685 (National Center for Advancing Translational Sciences (NCATS), 2010).
